Article PMC5515355, “Frizzled 7 and PIP2 binding by syntenin PDZ2 domain supports Frizzled 7 trafficking and signalling” (Nature Communications, 2016)
Results are given in words; binding and its absence hold for the method and conditions named. Each block holds one binder with its values, some of them ahead of it.

How the values were obtained:
[1] = molecular target: syntenin PDZ2 domain (residues 196-275), wild type (human) (UniProt O00560); assay: SEC-MALS; Shodex KW402.5-4F column, 0.2 ml per min, PBS buffer; Dawn Heleos II MALS detector; both purified
[2] = molecular target: syntenin PDZ2 domain (residues 196-275), mutant K214A/K250A (human) (UniProt O00560); assay: as above
[3] = molecular target: syntenin PDZ2 domain (residues 196-275), wild type (human) (UniProt O00560); assay: SEC; analytical SEC, Superdex 75 10/300 GL, 25 mM HEPES, 150 mM NaCl, pH 7.4; elution at 14 ml, ~10 kDa; both purified

binding [1]: no binding
B1: syntenin PDZ2 domain (residues 196-275), wild type (domain or fragment, UniProt O00560 196-275)
chain: ERTITMHKDSTGHVGFIFKNGKITSIVKDSSAARNGLLTEHNICEINGQNVIGLKDSQIADILSTSGTVVTITIMPAFIF

binding [2]: no binding
B2: syntenin PDZ2 domain (residues 196-275), mutant K214A/K250A (domain or fragment, UniProt O00560 196-275)
chain: ERTITMHKDSTGHVGFIFANGKITSIVKDSSAARNGLLTEHNICEINGQNVIGLADSQIADILSTSGTVVTITIMPAFIF

binding [3]: no binding
B3: syntenin PDZ2 domain (residues 196–275), wild type (domain or fragment, UniProt O00560 196-275)
chain: ERTITMHKDSTGHVGFIFKNGKITSIVKDSSAARNGLLTEHNICEINGQNVIGLKDSQIADILSTSGTVVTITIMPAFIF
